The list shows a part of the results. The main result of the screen is listed elsewhere. These columns were measured beside it and carry no call. Most of these compounds were active or inconclusive in the main read-out, so they are no random draw. Words in brackets tell the shape of the fitted curve; partial curves, single points and poor fits give uncertain potencies.
Test: qHTS Assay for Lipid Storage Modulators in Drosophila S3 Cells;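 on cell number change: cells counted by Cell Tracker Red CMTPX staining in the red channel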
Settings: BODIPY lipid droplet fluorescence, 18-24 h; for cell number change: measured here: cell count max response, cells fed with added oleic acid
In short: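 Laser-scanning cytometry quantifies lipid droplet accumulation (500–530 nm total intensity; droplet/cell object ratio) in oleic acid-fed (400 uM added) Drosophila S3 cells treated with a concentration series. 20 uM Triacsin C defined 100% inhibition.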

[1] = measured here: lipid fluorescence (Fed channel) AC50, cells fed with added oleic acid
[2] = measured here: cell number channel AC50, cells fed with added oleic acid

| Compound | cell number change [%] | AC50 [1] | AC50 [2] |
| --- | --- | --- | --- |
| Nc1ccn(CC(=O)NCc2ccccc2)c(=O)n1 | -25.2 | 14.6 µM [falling, single point] | – |
| COc1ccc(Cl)cc1NC(=O)CN1CCC(n2nnc3cc(F)ccc32)CC1 | -0.394 | 0.58 µM [rising, partial curve] | 6.51 µM [rising, single point] |
| CNC(=O)c1c(C)noc1C | 1.36 | 0.731 µM [falling, full curve] | – |
| COc1ccc(N(CC(O)CN2CCCCC2)S(=O)(=O)c2ccc(C)cc2)cc1 (centres undefined) | -31.3 | 3.66 µM [falling, full curve] | 3.26 µM [falling, partial curve] |
| COC(=O)c1ccc(N2CCN(C)CC2)c(NC(=O)COc2ccccc2)c1 | 3.95 | – | 4.61 µM [rising, partial curve, poor fit] |
| COc1ccccc1-c1nnc2n1N=C(c1ccc(O)c(O)c1)CS2 | 3.71 | – | – |
| Cc1nnc(Nc2ccc(C(=O)N3CCOCC3)cc2)c2ccccc12 | 12.7 | 0.731 µM [rising, full curve, poor fit] | – |
| O=C(Cc1ccccc1)NN1C(=O)/C(=C/c2ccc(C(=O)O)cc2)SC1=S | 4.89 | 3.26 µM [falling, full curve] | – |
| COc1ccc(C(=O)CNc2ccccc2Br)cc1 | 34.2 | 0.58 µM [rising, single point] | 29.1 µM [rising, single point] |
| O=C(N/N=C/c1c(F)c(F)c(F)c(F)c1F)c1ccc(Cn2cc(Br)cn2)o1 | -59.1 | 13 µM [falling, partial curve] | 14.6 µM [falling, partial curve] |
| CC(=O)C1=C(c2cccc([N+](=O)[O-])c2)N(C(C)=O)n2c(C)nnc2S1 | -49 | 16.4 µM [falling, single point] | 20.6 µM [falling, single point] |
| CC(C)N(CCNCc1nnc(-c2ccccc2)o1)C(C)C | -45.9 | 0.058 µM [falling, full curve] | 0.366 µM [falling, full curve, poor fit] |
| O=C(NC12CC3CC(CC(C3)C1)C2)c1ccco1 | -26.2 | 10.3 µM [falling, partial curve] | – |
| Cc1noc(C)c1CSc1nnc(-c2ccccc2)n1N | -34.1 | 29.1 µM [rising, single point] | 18.4 µM [falling, single point] |
| CC(=O)Nc1ccc(S(=O)(=O)Nc2nc3ccccc3nc2Nc2ccc(O)cc2)cc1 | -2.13 | 6.51 µM [falling, single point] | – |
| CC(C)c1ccc(N=C2NN=C(c3cccs3)CS2)cc1 | 40.7 | – | 25.9 µM [rising, single point] |
| COc1cccc2cc(C(=O)NCc3ccc(F)cc3)c(=N)oc12 | 15.3 | – | – |
| N#CCC(=O)NNC(=S)NC(=O)C(c1ccccc1)c1ccccc1 | -16.6 | 0.206 µM [falling, full curve, poor fit] | – |
| O=C(CSC1=NS(=O)(=O)c2ccccc2N1)Nc1ccccc1F | – | 7.31 µM [falling, partial curve] | – |

| Compound | cell number change [%] | AC50 [1] | AC50 [2] |
| --- | --- | --- | --- |
| Cc1nc(-c2ccc(S(=O)(=O)N3CCN(c4ccccc4)CC3)cc2)co1 | 24.2 | – | – |
| Cc1onc(-c2ccccc2Cl)c1C(=O)N1CCCCC1C(=O)O (centres undefined) | 2.84 | 6.51 µM [falling, single point] | – |
| O=C(COC(=O)c1ccc(NS(=O)(=O)c2ccc3c(c2)OCCO3)cc1)NC1CCS(=O)(=O)C1 (centres undefined) | -22.1 | 4.61 µM [falling, single point] | – |
| COc1ccccc1S(=O)(=O)Nc1cccc(-c2nnc3n2CCCCC3)c1 | 9.93 | 16.4 µM [falling, single point] | – |
| Cc1ccccc1NC(=S)N1CCOCC1 | 1.14 | 0.116 µM [falling, full curve, poor fit] | – |
| COc1cc2c(cc1NS(=O)(=O)N1CCCCC1)oc1ccccc12 | 12.2 | – | – |
| Cc1ccc2c(c1)c1n[nH]c(=S)nc1n2CCc1ccccc1 | 15.6 | 29.1 µM [rising, single point] | – |
| COc1ccc(CN(C)Cc2nc3cc(OC)c(OC)cc3c(=O)[nH]2)c(OC)c1 | 139 | – | 29.1 µM [rising, partial curve] |
| FC(F)(F)c1cccc(OCCN2CCN(Cc3ccccc3)CC2)c1 | -53.7 | 13 µM [falling, partial curve] | 14.6 µM [falling, partial curve] |
| COc1ccc(C(=O)N2CC=C(c3ccccc3)CC2)cc1S(=O)(=O)N1CCOCC1 | – | 25.9 µM [rising, single point] | – |
| CC(c1ccco1)N(C(=O)c1cccc(Br)c1)c1ccccn1 (centres undefined) | 14.3 | – | – |
| O=C1OC(Nc2ncccn2)c2ccccc21 (centres undefined) | -46.2 | 0.517 µM [falling, full curve] | 29.1 µM [falling, single point] |
| N#CC(C(=O)NC1CCCCC1)=C1CCCCCC1 | -10.5 | 0.82 µM [falling, partial curve, poor fit] | 0.82 µM [falling, full curve, poor fit] |
| O=C(Nc1ccc(-c2nnc(-c3ccccc3)o2)cc1)C(F)(F)F | -24.7 | 0.259 µM [falling, partial curve, poor fit] | – |
| COc1ccccc1-c1noc(CCC(=O)Nc2cccc(C(F)(F)F)c2)n1 | 2.8 | 1.03 µM [rising, partial curve] | – |
| Cc1ccc2nc(C(F)(F)F)c(C#N)c(N)c2c1 | -21.9 | 1.46 µM [rising, partial curve, poor fit] | – |
| COc1ccc2c(c1O)Cc1ccccc1C2=O | -13.8 | 6.51 µM [falling, single point] | – |
| CCc1ccc(NC(=O)C(=O)NCCN2CCN(S(=O)(=O)c3ccccc3)CC2)cc1 | -6.41 | – | – |
| COc1ccc(OCC(O)CNCc2ccco2)cc1 (centres undefined) | -2.02 | 0.00517 µM [falling, full curve, poor fit] | – |

| Compound | cell number change [%] | AC50 [1] | AC50 [2] |
| --- | --- | --- | --- |
| CCOC(=O)CSC1=C(C#N)C(c2ccc(OC)cc2)C2=C(CC(C)(C)CC2=O)N1 (centres undefined) | -26.2 | – | – |
| CCOC(=O)c1c(CS(=O)(=O)c2ccccc2)n(C)c2cc(Br)c(O)c(CN(C)C)c12 | -9.79 | 1.84 µM [falling, full curve, poor fit] | – |
| COc1ccc(CC(=O)Nc2ccc(-c3noc(-c4cc(OC)c(OC)c(OC)c4)n3)cc2)cc1 | -67.9 | 4.11 µM [falling, full curve] | 2.91 µM [falling, full curve] |
| COc1ccc(OC)c(N=C(N)N=C(N)N)c1 | 1.23 | 18.4 µM [falling, partial curve] | 0.092 µM [falling, full curve, poor fit] |
| COCCNC(=O)[C@H](C)[C@H]1C[C@]1(C)[C@H](NC(=O)OCc1ccccc1)c1ccccc1 | -1.14 | 20.6 µM [rising, single point] | – |
| CN(C)S(=O)(=O)c1ccc(Cl)c(NC(=O)COC(=O)C2CSC3(C)CCC(=O)N23)c1 (centres undefined) | -18.5 | – | 6.51 µM [rising, partial curve, poor fit] |
| COc1ccc(CN2C(=O)c3ccccc3C2=O)cc1 | 13.2 | 29.1 µM [rising, single point] | – |
| CCOC(=O)c1c(C)[nH]c(C(=O)COC(=O)c2ccc(N3CCCC3=O)cc2)c1C | 7.79 | 0.82 µM [rising, full curve, poor fit] | – |
| Cc1cccc(C(=O)NNC(=O)CCn2nnc3ccccc32)c1 | 0.213 | 5.8 µM [falling, single point] | – |
| COc1ccc(C(=O)NC(=S)NCCc2ccccc2)cc1 | – | 6.51 µM [falling, single point] | 6.51 µM [falling, single point] |
| Cn1c(NC(=S)Nc2ccccc2)nc2ccccc21 | -18.9 | 2.31 µM [falling, full curve] | – |
| Cc1cc(=O)oc2c3c(cc(OCC(=O)NCc4ccncc4)c12)OC(C)(C)CC3 | 24.6 | 29.1 µM [rising, single point] | 0.92 µM [rising, full curve, poor fit] |
| CCC1=NN2C(=N)/C(=C/c3ccc(OS(=O)(=O)c4ccccc4)cc3)C(=O)N=C2S1 | -3.44 | 29.1 µM [rising, single point] | – |
| CC(C)c1ccc(NC(=O)[C@H](Cc2c[nH]c3ccccc23)NC(=O)[C@@H]2Cc3ccccc3CN2)cc1 | -11.9 | 0.103 µM [falling, full curve, poor fit] | – |
| Cn1cccc1/C=C1\SC(=S)N(NC(=O)c2cccc(Cl)c2)C1=O | 34.3 | 6.51 µM [rising, partial curve, poor fit] | 8.2 µM [rising, partial curve] |
| Cc1cccc(Nc2nc(-c3ccc(O)c(O)c3)cs2)n1 | -64.6 | 29.1 µM [falling, single point] | 23.1 µM [falling, single point] |
| COc1cc2nc(CN3CCN(S(=O)(=O)c4ccccc4)CC3)[nH]c(=O)c2cc1OC | -1.49 | – | – |
| COc1ccc(NC(=O)C2CC(=O)N(c3ccccc3Cl)C2)c(OC)c1 (centres undefined) | 6.84 | – | – |
| Cc1ccc(CSc2nc3ccncc3n2CC(=O)Nc2cc(C)cc(C)c2)cc1 | -40.5 | 1.84 µM [rising, partial curve] | 16.4 µM [falling, single point] |

Single records (already shown). Order of values: cell number change [%] | AC50 [1] | AC50 [2]
COc1ccc(NC(=O)C2CC(=O)N(c3ccccc3Cl)C2)c(OC)c1 (centres undefined) is entered as 6.84 | – | –
Cn1c(NC(=S)Nc2ccccc2)nc2ccccc21 is entered as -18.9 | 2.31 µM [falling, full curve] | –
CCOC(=O)CSC1=C(C#N)C(c2ccc(OC)cc2)C2=C(CC(C)(C)CC2=O)N1 (centres undefined) is entered as -26.2 | – | –

Random excerpt: 2 compounds from above

| Compound | cell number change [%] | AC50 [1] | AC50 [2] |
| --- | --- | --- | --- |
| Cc1ccc(CSc2nc3ccncc3n2CC(=O)Nc2cc(C)cc(C)c2)cc1 | -40.5 | 1.84 µM [rising, partial curve] | 16.4 µM [falling, single point] |
| CN(C)S(=O)(=O)c1ccc(Cl)c(NC(=O)COC(=O)C2CSC3(C)CCC(=O)N23)c1 (centres undefined) | -18.5 | – | 6.51 µM [rising, partial curve, poor fit] |
